# Literature values, collected in patent publication US20040005347A1, “Composition comprising cocoa” (N. V. NUTRICIA, priority 2001, published 2004).
# For at least one compound, name, drawing or mass did not settle the structure.
# System: women with premenstrual (PMS)
# Conditions: treatment-free period vs Bromergon therapy vs placebo; investigators' observation
compound,measurement,value
"CC(C)C[C@H]1C(=O)N2CCC[C@H]2[C@]2(O)O[C@](NC(=O)[C@@H]3C=C4c5cccc6[nH]c(Br)c(c56)C[C@H]4N(C)C3)(C(C)C)C(=O)N12 [Bromergon, bromocriptine]",presence of psychic symptoms,no difference
